The text below walks through data of patent publication US11202835B2, “Method of controlled competitive exchange” (Anteo Technologies Pty Ltd, priority 2015, dated 2021).

The subject of this data set is mouse IgG. Briefly: Competitive release of 5-carboxyfluorescein (first agent) from metal complex activated magnetic particles by mouse IgG. Particulars: FIG. 2.

Turning to `O=C(O)c1ccc2c(c1)C(=O)OC21c2ccc(O)cc2Oc2cc(O)ccc21` [5-carboxyfluorescein], the “release of 5-carboxyfluorescein from the particles, effect of first agent binding temperature” value (first agent bound at 45° C. compared to 25° C.) is reported as “significantly less”. For the same compound, the “release of 5-carboxyfluorescein from the particles into the supernatant” value (various mouse IgG concentrations (50-1250 μg/mL), 30 minutes) is recorded as “increasing mouse IgG concentration correlated with a greater release”.
